Results taken from PubChem BioAssay AID1970 (National Center for Advancing Translational Sciences (NCATS), 2009).
Inconclusive means that the source gave no clear call. Such entries were picked first, then a sample of the others. A potency beside an inconclusive call is a rough fit, not a confirmed value. Activity calls are given as the source filed them. The call rests on the fitted dose curve; in most records, active means well fitted inhibition curve with a large enough effect; inconclusive means small, poorly fitted or top-dose-only effect; inactive means flat fitted curve, though single readings scatter.

Sequences of proteins named here, by UniProt entry; tags and fusion partners are left off. A change or cut given only in a name is not applied to a line headed by its entry.
UniProt Q9HAZ1: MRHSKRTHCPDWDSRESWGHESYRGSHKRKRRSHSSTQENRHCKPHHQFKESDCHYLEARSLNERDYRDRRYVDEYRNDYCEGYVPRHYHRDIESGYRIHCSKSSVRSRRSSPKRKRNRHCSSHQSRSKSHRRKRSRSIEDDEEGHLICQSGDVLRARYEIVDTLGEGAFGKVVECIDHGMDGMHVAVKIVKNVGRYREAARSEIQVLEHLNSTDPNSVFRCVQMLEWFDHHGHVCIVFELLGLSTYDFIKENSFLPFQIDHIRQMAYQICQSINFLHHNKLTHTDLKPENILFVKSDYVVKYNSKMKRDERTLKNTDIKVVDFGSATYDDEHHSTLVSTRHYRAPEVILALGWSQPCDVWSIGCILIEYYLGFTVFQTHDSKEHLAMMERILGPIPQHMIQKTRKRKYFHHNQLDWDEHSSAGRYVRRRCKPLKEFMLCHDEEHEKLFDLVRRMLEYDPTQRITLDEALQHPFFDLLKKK

molecular target: Dual specificity protein kinase CLK4 (Homo sapiens) (UniProt Q9HAZ1); test: Confirmation Assay for Inhibitors of CDC-like Kinase 4 (Kinase-Glo Assay); conditions: recombinant Clk4, Kinase-Glo ATP depletion luminescence; series mostly up to 47.7 µM
Method: NIH Molecular Libraries Probe Production Centers Network [MLPCN] NIH Chemical Genomics Center [NCGC] MLPCN Grant: 1R03MH084827-01 Assay Submitter (PI): Tom Misteli NCGC Assay Overview: Clk4 (Invitrogen, cat# PV3839) was assayed using ATP and the RS repeat peptide (AnaSpec cat # 61722) as substrates. Following the Clk4 reaction, the remaining ATP levels were detected using Promega Kinase-Glo technology wherein the remaining ATP from the kinase reaction is detected using Ultra-Glo luciferase and D-luciferin which generates a bioluminescence signal from the ATP.
NCGC Assay Protocol Summary: Two uL/well of substrate-buffer solution (100 uM RS peptide, 1 uM ATP, 25 mM Tris pH7.5, 10 mM MgCl2, 0.5 mM EGTA, 2.5 mM DTT, 0.01% Triton X-100 final concentration) was dispensed into 1536-well, assay plates (Greiner, solid white medium-binding plates) with Aurora Discovery BioRAPTR Flying Reagent Dispenser (FRD; Beckton-Dickenson). Using a Kalypsys pin tool equipped with a 1536-pin tool, 23 nL of compound solution was transferred to the assay plate. One uL/ well Clk4-buffer solution (25 nM Clk4, 25 mM Tris pH 7.5, 10 mM MgCl2, 0.5 mM EGTA, 2.5 mM DTT, 0.01% Triton X-100, final concentrations) was then added using the FRD yielding a total kinase reaction volume of 3 uL/ well. After 4.5 hours of room temperature incubation, 3 uL Kinase-Glo reagent was added for a final assay volume of 6 uL/ well. Luminescence was detected with the ViewLux plate reader (Perkin Elmer, Waltham, MA) after 5 min incubation using a 5 second exposure time and 2x binning.

Structure (SMILES)	Potency
Cn1ccc2cc(-c3ccc4ncnc(NCc5cccc(F)c5)c4c3)ccc21	inconclusive: 10000 nM [falling, full curve]
Cc1csc(CNc2ncnc3ccc(-c4ccccc4Cl)cc23)c1	inconclusive: 10000 nM [falling, full curve]
Clc1cccc(-c2ccc3ncnc(NCc4cccnc4)c3c2)c1	inconclusive: 2510 nM [falling, full curve]
Clc1cccc(-c2ccc3ncnc(NCc4ccc5c(c4)OCO5)c3c2)c1	inconclusive: 7940 nM [falling, full curve]
CCOC(=O)c1ccoc1-c1ccc2ncnc(NCc3csc(C)n3)c2c1	inconclusive: 654 nM [falling, full curve, poor fit]
c1cncc(CNc2ncnc3ccc(-c4ccc5c(c4)OCCO5)cc23)c1	active: 447 nM
Cc1csc(CNc2ncnc3ccc(-c4ccco4)cc23)c1	inactive
CN(Cc1nccs1)c1ncnc2ccc(-c3ccc4c(c3)OCO4)cc12	active: 37.7 nM
Cn1ccc2cc(-c3ccc4ncnc(NCc5ccc6c(c5)OCO6)c4c3)ccc21	inconclusive: 31600 nM [falling, partial curve]
OCc1ccc(-c2ccc3ncnc(NCCc4cnc[nH]4)c3c2)o1	active: 733 nM
Fc1c(-c2ccc3ncnc(NCc4cccs4)c3c2)ccc2c1OCO2	active: 65.4 nM
c1csc(CNc2ncnc3ccc(-c4ccoc4)cc23)c1	active: 184 nM
COc1cccc(-c2ccc3ncnc(NCc4ccc5c(c4)OCO5)c3c2)c1	active: 1410 nM
Clc1ccccc1-c1ccc2ncnc(NCc3ccc4c(c3)OCO4)c2c1	inconclusive: 7940 nM [falling, full curve]

Two consecutive records out of the list so far:
Structure (SMILES)	Potency
c1csc(CNc2ncnc3ccc(-c4ccoc4)cc23)c1	active: 184 nM
COc1cccc(-c2ccc3ncnc(NCc4ccc5c(c4)OCO5)c3c2)c1	active: 1410 nM
